Test results: PubChem BioAssay AID1347426 (Functional Genomics Laboratory (NCATS/FGL), 2020)
The whole screen tested about 31,000 sequences, of which about 1,400 (4.5%) were called active.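 How the source made its calls: active means median seed-adjusted z-score above 1 or below -1; inactive means the rest.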 Some of the results follow.

Experiment: Novel Modifiers of Survival Motor Neuron (SMN) Protein: Gene Identification via Genome-wide siRNA Screen;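 further: luminescence tracks full-length SMN protein made from the SMN2 reporter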
Settings: HEK293T SMN2-luciferase reporter, siRNA knockdown, 72 h; actives lie on both sides
Summary of the method: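 Genome-wide siRNA screen (10418 genes, 3 siRNAs each, 1 pmol per well) by reverse transfection in HEK293T cells stably carrying an SMN2-luciferase reporter; luminescence after 72 hours, normalized to negative-control siRNA, log10-transformed, MAD-scored.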

Sequence | median seed-adjusted z-score
GUCUAAUGCACUUAGCUAATT against HEL308 | inactive: 0.229
AAAACGGAGUGGAAAAGAATT against DZIP1L | inactive: 0.203
GAACUAUAAAGGUAUGGAATT against BTRC | inactive: -0.0819
GCAAUUUGCUGGGAUCAAUTT against SLCO6A1 | inactive: 0.0239
GAAGUACCCUGACAACCGATT against DOCK10 | inactive: -0.201
GUGACUGCAUUCGAACAUATT against LAMA2 | inactive: 0.0733
AGAUUCUUAUUGCAUGACATT against NLGN4Y | inactive: 0.317
GCAUCUAUCAGUUCGAGUATT against EVI5L | inactive: 0.0497
CAACUAUCUCAGGCCUUAATT against TRIM67 | inactive: -0.431
GCCUAUUACAAAUCAACUUTT against ZNF766 | inactive: -0.577
GGCAGACCUUUACAACUCATT against SP1 | inactive: 0.544
GGACAAUGUCAGAACAAGATT against CNOT6 | inactive: 0.146
AGAUUUGCCUGAUGCUCAATT against RGS10 | inactive: 0.304
GGUACCCAAGGCCUGCUUATT against POLR2J2 | inactive: 0.375
GGAUUACAUGGAUCGUCUUTT against MIER1 | inactive: 0.0271
GACUUGAUCUUGAUCAAUUTT against TEK | inactive: -0.347
CAGUCAAAUCUAUCGUUUUTT against NCOA2 | inactive: 0.149
GAAACAAUUCAGAACAUGATT against PSMD11 | inactive: -0.156
CGUAUACUAUUAUCACGUUTT against ATP6V0A1 | inactive: 0.103
GCAUUGAUCGCUAUCUGAATT against GPR87 | inactive: 0.237
CUGCGGACCCAAUACAUGATT against ARID3A | active: -1.11
GACUGGAGUUGAAUGGGAATT against SIAH2 | inactive: 0.156

Sequence | median seed-adjusted z-score
GCAGGUCUGUGCAAUAGCATT against ABCA9 | inactive: -0.139
GGACAUAGAUCAGAAGCUATT against CDK7 | inactive: -0.524
GGAUCCAUUUUGUUGGACATT against NKX6-1 | inactive: -0.0317
GCAUUAGCCUCAUUGGUCUTT against IPO5 | inactive: -0.299
CCCUGAAAGUGUUAAGUCUTT against ZNF329 | inactive: -0.0877
GCAGAGACCAUGAUCGUUUTT against COPA | inactive: -0.807
GGACAUGUCACACCAUUAUTT against SP6 | inactive: -0.176
GAGAUAACAUCAGUAGAAATT against FGF10 | inactive: 0
CUAUGGACCAGUCAAAUAATT against NDUFB7 | inactive: -0.379
CCGCAGAUGAGAUCCCUAATT against SORBS3 | inactive: 0.106
GGAUGGUUAUAACUACACUTT against S100A11 | inactive: 0.702
AGUCUGUUUUGAGAUCGAATT against CARD8 | inactive: 0.115
GUACUUCAAUAGUAGCAGATT against ASAH1 | inactive: 0.421
CGACAAUUCUUCUAGACAATT against TTC3 | active: -1.17
CUCUUGCUACGGAGGCUACTT against NKX2-6 | inactive: -0.00448
GCUUAAAAUAGAACGUGAATT against SPINT4 | inactive: 0.354
UGCCUUGGUUCAUCCCUAATT against ATP6V0E1 | inactive: -0.0658
CCAAGAGUCUUAAUGCCUUTT against HDAC3 | inactive: 0.579
GAGGAAGUAUAACACCAAATT against RDH13 | inactive: 0.208
GCUUGACUUCAAAACUAAATT against SERPIND1 | inactive: 0.133
GACCGUUUGUGGUAGCAGUTT against ACOT9 | inactive: 0.58
CCAUGAUACUCCACUCCCATT against GUCA2A | inactive: 0.121

Sequence | median seed-adjusted z-score
GACUUGACCGAGUACCUCATT against UQCRC1 | inactive: -0.284
AGAAUUAUAUGAAACACCUTT against CCL13 | inactive: 0.135
CAGAUUUUCUAUGGACUUATT against ZNF516 | inactive: 0.56
GGUGUAUCAGAUGCUCAAATT against MAPK13 | inactive: -0.491
CCUUCAUUAAUGAGUCAUATT against ZNF426 | inactive: 0.2
GCAUGAACCAGUUAUCACATT against SCYL2 | inactive: -0.0652
CAGAUGAAAUACUACUUCUTT against ARD1A | active: -1.05
GUCUGUUUCUUCGAAAUUATT against VPS35 | inactive: -0.511
GGAGUUCACCAAGUCCUUATT against CHP2 | inactive: 0.364
GAAGAUGGGUAUAUCCUUUTT against LIPM | inactive: -0.00856
GGAUGUAUGAGGCUCAUUUTT against CNTNAP4 | inactive: -0.414
CCAUUUGAAUUACCACGUATT against GRIA3 | inactive: -0.358
GCAGACAAGUCAACCGUGATT against FRK | inactive: -0.14
CCUAAUUACUGCUAUCGUUTT against PPP6C | inactive: -0.0212
CAUUGUUAGUUCAUCAAGATT against RASEF | inactive: 0.299
GGACCAAGAGGAUUGAGUATT against CLSTN2 | inactive: 0
GCUGAUGAAUCCGAAAAUATT against SLC7A14 | inactive: 0.132
CUGCCGGAGUUACAACUCATT against DPF3 | inactive: 0.242
CCUUCUGAAAGAACGCAAATT against ABCA8 | inactive: -0.666
AGAACAGGCGUAUGAAGAATT against HOXD12 | inactive: -0.18
GCCCUAUAAAUGUGGAGAATT against ZSCAN20 | inactive: -0.099
CAGUGAGUAUAGAAACGGATT against NLP | inactive: -0.186

Sequence | median seed-adjusted z-score
GAACAUAUGGUGCAUGAUATT against ZFY | inactive: -0.128
GGCAGAUAACUGAACGAGATT against HECW2 | inactive: 0.38
UGACAGAGAUUUGACACCATT against PRSS33 | inactive: -0.588
GCAGGAAAAUCGCGAGGGATT against PDLIM2 | inactive: 0.267
CAAACUUCACUAUGCAUUUTT against CHP2 | inactive: 0.364
GGAUAGUCGUGAUGCCCAUTT against HDAC7 | inactive: -0.41
GCCUGUUCUGAAUUGGUGATT against ZCCHC3 | inactive: -0.849
GGAAAUCCUUGGGUUUGAATT against SRRM1 | inactive: -0.861
CCAGUAGCCUAUUACCGAATT against SLITRK2 | inactive: -0.246
CAAUACUAGUUCUCGUUUATT against PDZD8 | inactive: 0.0582
GGCUGACAAUUACAACUAUTT against PKP1 | inactive: -0.99
GCAUGAUGAGCAGAAAGGATT against HR | inactive: 0.751
CGAUUAUCAUGUUGACGGATT against TUBGCP3 | inactive: -0.685
GCAAUGGAGGAAAGAUAUATT against HOOK1 | inactive: 0.202
GGAUGUUUAUCGUCGCAUUTT against TJP1 | inactive: 0.0302
GCUACGCAAUUGAAAAGCATT against UGT2B4 | inactive: 0.0707
GAGACGAUUUAGAAGCUUUTT against CSNK1G3 | inactive: 0
CCCUCAUGGACAUCGCCUATT against PCGF2 | inactive: 0.187
GCAUAGUGAAGGCCCUGAATT against PRDX5 | inactive: -0.0386
GCAUAGAUGGAACCCAUUATT against DPYSL3 | inactive: -0.226
CUCUGUAGAUAAACCCAUATT against HSF2 | inactive: -0.0228
GCAUCGUAAUUCCCUAUGATT against SLC10A2 | inactive: -0.219

Already shown: an excerpt of the list.
Sequence | median seed-adjusted z-score
CAAACUUCACUAUGCAUUUTT against CHP2 | inactive: 0.364
GGAUAGUCGUGAUGCCCAUTT against HDAC7 | inactive: -0.41
GCCUGUUCUGAAUUGGUGATT against ZCCHC3 | inactive: -0.849
GGAAAUCCUUGGGUUUGAATT against SRRM1 | inactive: -0.861
CCAGUAGCCUAUUACCGAATT against SLITRK2 | inactive: -0.246
CAAUACUAGUUCUCGUUUATT against PDZD8 | inactive: 0.0582
GGCUGACAAUUACAACUAUTT against PKP1 | inactive: -0.99

Carrying on.

Sequence | median seed-adjusted z-score
GCGUGUCCAUCUUAGACUUTT against ZNF616 | inactive: -0.0874
UGCCUUUAAUAAGCUCCAATT against IL10 | inactive: 0.0967
GGGAUGCAGCAGAUCAGAATT against RAB3D | inactive: 0.221
GUAGCUUGCUACUCCAGAATT against POLR2D | active: -3.79
GGAGCAUUCUCAUUCGAGATT against CSTF3 | inactive: 0.0879
AGACCCAUCUUUUACUGCATT against TRIM56 | inactive: -0.452
CGUGCGGACAAUAAGCAAATT against MYO1C | inactive: 0.566
GGAUACAUAUUACUUCUGATT against SLCO1C1 | inactive: 0.071
AGGAGAUUCUGAACAGGCUTT against GPR26 | active: -1.33
GGGAUCUUCUGGUACCUGUTT against SLC17A7 | inactive: -0.0794
CAACCAGAAUUGGAGGUAATT against CARD6 | inactive: 0
CAAAAGAGGUUAACCUUGATT against RGS18 | inactive: -0.0369
AAGUUAGUCCUAAAGUGUATT against UCHL1 | inactive: -0.421
CGAUAUCAGCUGAUUAUGATT against TRPM1 | inactive: -0.527
GGAUACACCUUUGAAGUUATT against ADH7 | inactive: -0.388
GAUCUUGCCCUAUCAAGCATT against DBP | inactive: -0.115
GGUCCAACAUGCAAUCCAATT against EDEM3 | inactive: 0.119
CAUACUUUUUGGAUAGACATT against MTX1 | inactive: -0.159
AGAAGACGGUGACGAUGAATT against SYT7 | inactive: -0.762
